About 260 (0.074%) of roughly 350,000 compounds were called active. All entries are inconclusive by the source's own rule. Clear calls are listed elsewhere. The call rests on the fitted dose curve; in most records, active means well fitted inhibition curve with a large enough effect; inconclusive means small, poorly fitted or top-dose-only effect; inactive means no such curve, though single readings can be large or run the other way.
These molecules were tested against Ferritin light chain (Equus caballus) (UniProt P02791) (assay: qHTS Assay for Identification of Novel General Anesthetics). Conditions: apoferritin/1-aminoanthracene competitive binding, fluorescence.
Further: nearly all actives have a fitted effect of over 20% in size.
Potency means the concentration at half of the fitted maximal effect.

Chains of the proteins cited; added tags and fusions are not shown. Residues count along the entry.
UniProt P02791, 2-175 limits assumed: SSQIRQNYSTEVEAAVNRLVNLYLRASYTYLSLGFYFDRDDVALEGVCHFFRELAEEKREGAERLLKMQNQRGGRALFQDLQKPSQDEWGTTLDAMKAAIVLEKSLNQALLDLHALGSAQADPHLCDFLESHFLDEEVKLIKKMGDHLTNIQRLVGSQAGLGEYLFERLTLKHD

Compound | Potency
O=[N+]([O-])c1ccc2c(c1)C=Nc1ccccc1O2 | inconclusive: 14.1 µM
CCCOc1ccc(NP(C)(=O)Oc2ccc(Cl)cc2)cc1 (centres undefined) | inconclusive: 35.5 µM
COc1ccc(OP(C)(=O)Nc2ccc(SC(F)(F)F)cc2)cc1 (centres undefined) | inconclusive: 31.6 µM
O=[N+]([O-])c1cc([N+](=O)[O-])c(Nc2ccccn2)c([N+](=O)[O-])c1 | inconclusive: 35.5 µM

— PubChem BioAssay AID485281 (National Center for Advancing Translational Sciences (NCATS), 2010)
